Laboratory results as given in patent publication US20230201158A1, “PHARMACEUTICAL COMPOSITION CAPABLE OF INHIBITING REPLICATION OF CORONAVIRUS” (MAHIDOL UNIVERSITY, priority 2020, published 2023).
Some of these results come from one statement about several compounds together. At least one structure is not confirmed: it was looked up by name or label, or the drawing left a doubt.

Test system: SARS-CoV-2
Type: cell-based
Settings: 5 μM, primary human alveolar cells, FIG. 11

How did the “Reduction of infected cells” value turn out when `COc1cc(O)c(C(=O)[C@@H]2[C@H](CC=C(C)C)C(C)=CC[C@H]2c2ccccc2)c(O)c1` [Panduratin A] was run?
Its value is 60-70%.
